At least one compound was matched to its structure with a doubt left.
Key:
[1] = system: male Sprague Dawley rats (learning and memory); assay: Modified Morris water maze; assay type: in vivo, rat; details: 0.25 to 2 mg/kg i.v., six trial procedure
[2] = system: male Sprague Dawley rats (learning and memory); assay: Step-down passive avoidance task; assay type: in vivo, rat

CN1CCN(C2=Nc3cc(Cl)ccc3Nc3ccccc32)CC1 [clozapine]
water maze retention (difference between scores of trial 1 and retest trial) [1]: no significant differences | passive avoidance acquisition vs vehicle group ([2]; 1.0 mg/kg i.v. 5 min prior to training): significant deficit in acquisition | passive avoidance acquisition vs vehicle group ([2]; 2.0 mg/kg i.v. 5 min prior to training): significant deficit in acquisition | passive avoidance retention vs vehicle group ([2]; 0.25 to 2 mg/kg i.v., retest about 24 h after training): no significant differences in retention

— US6797824B2, “Certain 4-aminomethyl-2-substituted imidazole derivatives and 2-aminomethyl-4-substituted imidazole derivatives; new classes of dopamine receptor subtype specific ligands” (Neurogen Corporation, priority 1990, dated 2004)
